In paper PMC12340889:
The exact form of at least one protein or probe is not confirmed. At least one verdict was read from the data and is not stated in words by the source.

Test system: DriD(R121E-R122E-P125E-E128R) (Caulobacter crescentus)
Assay: fluorescence polarization
Conditions: 100 uM ssDNA effector 5'-TGACTAT-3', complex preformed before alphaCTD titration, FP: 25 mM Tris-HCl pH 7.5, 150 mM NaCl, 2.5% glycerol, temperature not stated, recombinant protein, protein details: N-terminal His (pET15b)

## ATACGACAGTAACTGTCGTAT (double strand) [F-DriD target DNA]
  binding result: binds
